# Results as given in the supplement of paper PMC4635364.
# Where a name gives a salt, the structure may show the parent alone. This is one part of the list. Repeats in this data set agree poorly, so a single value says little.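 Human fetal ventral-midbrain neural progenitor line ReNCell VM, differentiated without mitogens. Images stained for doublecortin (early neurons) or tyrosine hydroxylase (dopaminergic neurons) were scored by blinded raters against untreated wells (0 = no change). Repeats and both raters were averaged, and compounds averaging 2 or higher were picked as hits for retesting.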
# Assays:
# ReNCell VM [1] = assay: neuronal differentiation score (DCX+ cell fraction vs untreated, manual image score) (score (-3 to 3)); higher = more neuronal differentiation; conditions: 2 uM, 2 weeks
# ReNCell VM [2] = assay: dopaminergic neuron differentiation score (TH+ cell fraction vs untreated, manual image score) (score (0 to 3)); higher = more TH+ dopaminergic neuron differentiation; conditions: 2 uM, 4 weeks, BDNF 10 ng/ml + GDNF 10 ng/ml
smiles,measurement,setting,value
C[C@]12CC[C@H]3[C@@H](CCC4=CC(=O)CC[C@@]43C)[C@@H]1CC[C@H]2O,neuronal differentiation score,ReNCell VM [1]; library: Spectrum,inactive: 0
same,dopaminergic neuron differentiation score,ReNCell VM [2]; library: Spectrum,inactive: 0
CC1CC(C)C(=O)C(C(O)CC2CC(=O)NC(=O)C2)C1 (centres undefined),neuronal differentiation score,ReNCell VM [1]; library: Natural,inactive: -1
same,dopaminergic neuron differentiation score,ReNCell VM [2]; library: Natural,inactive: 0
CCC1(c2cccc(O)c2)CCCCN(C)C1 (centres undefined) [Meptazinol hydrochloride],neuronal differentiation score,ReNCell VM [1]; library: Prestwick,inactive: 0
same,dopaminergic neuron differentiation score,ReNCell VM [2]; library: Prestwick,inactive: 0
CC[C@H]1CN2CCc3cc(OC)c(OC)cc3[C@@H]2C[C@@H]1C[C@H]1NCCc2cc(OC)c(OC)cc21 [Emetine dihydrochloride hydrate],neuronal differentiation score,ReNCell VM [1]; library: LOPAC,inactive: 0
same,dopaminergic neuron differentiation score,ReNCell VM [2]; library: LOPAC,inactive: 0
C[C@]12CC[C@H](O)C[C@H]1CC[C@@H]1[C@@H]2C[C@@H](O)[C@]2(C)[C@@H](C3=CC(=O)OC3)CC[C@]12O,neuronal differentiation score,ReNCell VM [1]; library: Spectrum,inactive: 0
same,dopaminergic neuron differentiation score,ReNCell VM [2]; library: Spectrum,inactive: 0
CC(C)C[C@@H](N)C1(c2ccc(Cl)cc2)CCC1,neuronal differentiation score,ReNCell VM [1]; library: Tocriscreen,inactive: 0
same,dopaminergic neuron differentiation score,ReNCell VM [2]; library: Tocriscreen,inactive: 0
Cc1cc2c(C(C)C)c(O)c(O)c(C=O)c2c(O)c1-c1c(C)cc2c(C(C)C)c(O)c(O)c(C=O)c2c1O [Gossypol],neuronal differentiation score,ReNCell VM [1]; library: Phytochemical,inactive: 0
same,dopaminergic neuron differentiation score,ReNCell VM [2]; library: Phytochemical,inactive: 0
CC(=O)O[C@H]1C[C@H](O[C@H]2[C@@H](O)C[C@H](O[C@H]3[C@@H](O)C[C@H](O[C@H]4CC[C@@]5(C)[C@H](CC[C@@H]6[C@@H]5C[C@@H](O)[C@]5(C)[C@@H](C7=CC(=O)OC7)CC[C@]65O)C4)O[C@@H]3C)O[C@@H]2C)O[C@H](C)[C@H]1O[C@@H]1O[C@H](CO)[C@@H](O)[C@H](O)[C@H]1O,neuronal differentiation score,ReNCell VM [1]; library: Spectrum,inactive: 0
same,dopaminergic neuron differentiation score,ReNCell VM [2]; library: Spectrum,inactive: 0
CC(=O)O[C@H]1[C@H]2[C@@H](OC(=O)Cc3ccccc3)[C@@H](C)C[C@]2(OC(C)=O)C(=O)/C(C)=C/[C@@H]2[C@H](CC[C@@]13CO3)C2(C)C [euphorbiasteroid],neuronal differentiation score,ReNCell VM [1]; library: Natural,inactive: 0
same,dopaminergic neuron differentiation score,ReNCell VM [2]; library: Natural,inactive: 0
c1ccc2c(c1)sc1ccccc12,neuronal differentiation score,ReNCell VM [1]; library: Spectrum,inactive: 0
same,dopaminergic neuron differentiation score,ReNCell VM [2]; library: Spectrum,inactive: 0
CCCCCCC(C)(C)c1ccc([C@@H]2C[C@H](O)CC[C@H]2CCCO)c(O)c1,neuronal differentiation score,ReNCell VM [1]; library: LOPAC,inactive: 0
same,dopaminergic neuron differentiation score,ReNCell VM [2]; library: LOPAC,inactive: 0
"CC1NCCc2c1[nH]c1ccccc21 (racemic) [Eleagnine hydrochloride (R,S)]",neuronal differentiation score,ReNCell VM [1]; library: Phytochemical,inactive: 0
same,dopaminergic neuron differentiation score,ReNCell VM [2]; library: Phytochemical,inactive: 0
NCc1cc(O)no1 [Muscimol hydrobromide],neuronal differentiation score,ReNCell VM [1]; library: LOPAC,inactive: 0
same,dopaminergic neuron differentiation score,ReNCell VM [2]; library: LOPAC,inactive: 0
C[C@H](N)Cn1ccc2cc(F)c(Cl)cc21 [Ro 60-0175 fumarate],neuronal differentiation score,ReNCell VM [1]; library: Tocriscreen,inactive: 0
same,dopaminergic neuron differentiation score,ReNCell VM [2]; library: Tocriscreen,inactive: 0
Cc1c(O)c(O)cc2c1CC=C1[C@@]2(C)CC[C@@]2(C)[C@@H]3C[C@](C)(C(=O)O)CC[C@]3(C)CC[C@]12C,neuronal differentiation score,ReNCell VM [1]; library: Spectrum,inactive: 0
same,dopaminergic neuron differentiation score,ReNCell VM [2]; library: Spectrum,inactive: 0
CNc1ccccc1C(=O)O,neuronal differentiation score,ReNCell VM [1]; library: Spectrum,inactive: 0
same,dopaminergic neuron differentiation score,ReNCell VM [2]; library: Spectrum,inactive: 1
O=C(CN1CCCCC1c1cccnc1)c1ccccc1 (centres undefined),neuronal differentiation score,ReNCell VM [1]; library: Natural,inactive: 0
same,dopaminergic neuron differentiation score,ReNCell VM [2]; library: Natural,inactive: 0
C=CCN1CCc2cccc3c2[C@H]1Cc1ccc(O)c(O)c1-3 [R(-)-N-Allylnorapomorphine hydrobromide],neuronal differentiation score,ReNCell VM [1]; library: LOPAC,inactive: 0
same,dopaminergic neuron differentiation score,ReNCell VM [2]; library: LOPAC,inactive: 0
CC1(C)C(=O)C=C[C@@]2(C)C1=C(O)C(=O)[C@]1(C)[C@@H]2CC[C@@]2(C)[C@H](c3ccoc3)C[C@H]3O[C@]321,neuronal differentiation score,ReNCell VM [1]; library: Spectrum,inactive: 0
same,dopaminergic neuron differentiation score,ReNCell VM [2]; library: Spectrum,inactive: 0
CC(=O)Nc1cc([As](=O)(O)O)ccc1O,neuronal differentiation score,ReNCell VM [1]; library: Spectrum,inactive: 0
same,dopaminergic neuron differentiation score,ReNCell VM [2]; library: Spectrum,inactive: 0
COc1cc([C@@H]2c3cc4c(cc3[C@H](O)[C@H]3COC(=O)[C@@H]23)OCO4)cc(OC)c1OC,neuronal differentiation score,ReNCell VM [1]; library: Spectrum,inactive: 0
same,dopaminergic neuron differentiation score,ReNCell VM [2]; library: Spectrum,inactive: 0
CC(N)Cc1c[nH]c2ccc(O)cc12 (stereo not drawn) [alpha-Methyl-5-hydroxytryptamine maleate],neuronal differentiation score,ReNCell VM [1]; library: LOPAC,inactive: 0
same,dopaminergic neuron differentiation score,ReNCell VM [2]; library: LOPAC,inactive: 0
CCN(C(C)=O)c1cccc(-c2ccnc3c(C#N)cnn23)c1 [Zaleplon],neuronal differentiation score,ReNCell VM [1]; library: Prestwick,inactive: 0
same,dopaminergic neuron differentiation score,ReNCell VM [2]; library: Prestwick,inactive: 0
CC(O)CN1CCN(CC(=O)[O-])CCN(CC(=O)[O-])CCN(CC(=O)[O-])CC1.[Gd+3] (centres undefined),neuronal differentiation score,ReNCell VM [1]; library: Spectrum,inactive: 0
same,dopaminergic neuron differentiation score,ReNCell VM [2]; library: Spectrum,inactive: 0
CC(C)(C)NCC(O)c1cc(Cl)c(N)c(Cl)c1 (centres undefined),neuronal differentiation score,ReNCell VM [1]; library: Spectrum,inactive: 0
same,dopaminergic neuron differentiation score,ReNCell VM [2]; library: Spectrum,inactive: 0
CN1C[C@H](C(=O)N[C@]2(C)O[C@@]3(O)[C@@H]4CCCN4C(=O)[C@H](Cc4ccccc4)N3C2=O)C=C2c3cccc4[nH]cc(c34)C[C@H]21,neuronal differentiation score,ReNCell VM [1]; library: Spectrum,inactive: 0
same,dopaminergic neuron differentiation score,ReNCell VM [2]; library: Spectrum,inactive: 0
COc1ccc2[nH]cc(C3=CCNCC3)c2c1,neuronal differentiation score,ReNCell VM [1]; library: Tocriscreen,inactive: 0
same,dopaminergic neuron differentiation score,ReNCell VM [2]; library: Tocriscreen,inactive: 0
CCN1C[C@]2(COC)CC[C@H](OC)[C@]34C5C[C@@H]6[C@@H](OC)C[C@@]7(OCO[C@@]7(C13)[C@@H](O)C24)C5[C@H]6OC (some centres undefined) [Delcorine],neuronal differentiation score,ReNCell VM [1]; library: Phytochemical,inactive: 0
same,dopaminergic neuron differentiation score,ReNCell VM [2]; library: Phytochemical,inactive: 0
Oc1ccc2c3c1O[C@H]1c4c(c5ccccc5n4Cc4ccccc4)C[C@@]4(O)C(C2)N(CC2CC2)CC[C@]314 [N-Benzylnaltrindole hydrochloride],neuronal differentiation score,ReNCell VM [1]; library: Tocriscreen,inactive: 0
same,dopaminergic neuron differentiation score,ReNCell VM [2]; library: Tocriscreen,inactive: 1
C=C(C)[C@H]1CN[C@H](C(=O)O)[C@H]1CC(=O)O,neuronal differentiation score,ReNCell VM [1]; library: Spectrum,inactive: 0
same,dopaminergic neuron differentiation score,ReNCell VM [2]; library: Spectrum,inactive: 0
O=C(O)[C@@H]1[C@H](C(=O)O)[C@H]2CC[C@@H]1O2 [Endothall],neuronal differentiation score,ReNCell VM [1]; library: LOPAC,inactive: 0
same,dopaminergic neuron differentiation score,ReNCell VM [2]; library: LOPAC,inactive: 1
"C[N+]1(C)CCc2cc3c(cc2[C@H]1[C@@H]1OC(=O)c2c1ccc1c2OCO1)OCO3 [(-)-Bicuculline methbromide, 1(S), 9(R)]",neuronal differentiation score,ReNCell VM [1]; library: LOPAC,inactive: 0
same,dopaminergic neuron differentiation score,ReNCell VM [2]; library: LOPAC,inactive: 0
C[C@@]12C(=O)OC(=O)[C@]1(C)[C@H]1CC[C@@H]2O1,neuronal differentiation score,ReNCell VM [1]; library: Spectrum,inactive: 0
same,dopaminergic neuron differentiation score,ReNCell VM [2]; library: Spectrum,inactive: 0
C=C[C@H]1CN2CC[C@H]1C[C@H]2[C@H](OC(=O)OCC)c1ccnc2ccc(OC)cc12,neuronal differentiation score,ReNCell VM [1]; library: Spectrum,inactive: 0
same,dopaminergic neuron differentiation score,ReNCell VM [2]; library: Spectrum,inactive: 0
CN1[C@@H]2CC[C@H]1C[C@@H](OC(=O)C(CO)c1ccccc1)C2 (some centres undefined) [atropine],neuronal differentiation score,ReNCell VM [1]; library: Natural,inactive: 0
same,dopaminergic neuron differentiation score,ReNCell VM [2]; library: Natural,inactive: 0
C#CCN(C)[C@H](C)Cc1ccccc1 [Selegiline hydrochloride],neuronal differentiation score,ReNCell VM [1]; library: Prestwick,inactive: 0
same,dopaminergic neuron differentiation score,ReNCell VM [2]; library: Prestwick,inactive: 0
C[C@]12C[C@H]3S[C@H]3C[C@@H]1CC[C@@H]1[C@@H]2CC[C@]2(C)[C@@H](O)CC[C@@H]12 [Epitiostanol],neuronal differentiation score,ReNCell VM [1]; library: Prestwick,inactive: 0
same,dopaminergic neuron differentiation score,ReNCell VM [2]; library: Prestwick,inactive: 0
CCCC(C)(COC(N)=O)COC(=O)NC(C)C (centres undefined),neuronal differentiation score,ReNCell VM [1]; library: Spectrum,inactive: 0
same,dopaminergic neuron differentiation score,ReNCell VM [2]; library: Spectrum,inactive: 0
NC1=NC(=O)C(c2ccccc2)O1 (centres undefined) [deltamine],neuronal differentiation score,ReNCell VM [1]; library: Natural,inactive: 0
same,dopaminergic neuron differentiation score,ReNCell VM [2]; library: Natural,inactive: 0
COc1cc2c(cc1OC)C1CC(=O)C(CC(C)C)CN1CC2 (centres undefined) [Tetrabenazine],neuronal differentiation score,ReNCell VM [1]; library: Tocriscreen,inactive: 0
same,dopaminergic neuron differentiation score,ReNCell VM [2]; library: Tocriscreen,inactive: 0
O=[N+]([O-])c1cc(O)c(O)c([N+](=O)[O-])c1,neuronal differentiation score,ReNCell VM [1]; library: Tocriscreen,inactive: 0
same,dopaminergic neuron differentiation score,ReNCell VM [2]; library: Tocriscreen,inactive: 0
C[C@@H]1CN([C@H]2CC[C@](C#N)(c3ccc(F)cc3)CC2)CC[C@]1(C(=O)O)c1ccccc1 [Levocabastine hydrochloride],neuronal differentiation score,ReNCell VM [1]; library: Prestwick,inactive: 0
same,dopaminergic neuron differentiation score,ReNCell VM [2]; library: Prestwick,inactive: 0

# Retrieved one by one from the entries so far (six):
smiles,measurement,setting,value
COc1ccc2[nH]cc(C3=CCNCC3)c2c1,dopaminergic neuron differentiation score,ReNCell VM [2]; library: Tocriscreen,inactive: 0
CNc1ccccc1C(=O)O,dopaminergic neuron differentiation score,ReNCell VM [2]; library: Spectrum,inactive: 1
CCCC(C)(COC(N)=O)COC(=O)NC(C)C (centres undefined),neuronal differentiation score,ReNCell VM [1]; library: Spectrum,inactive: 0
C[C@H](N)Cn1ccc2cc(F)c(Cl)cc21 [Ro 60-0175 fumarate],dopaminergic neuron differentiation score,ReNCell VM [2]; library: Tocriscreen,inactive: 0
CC(N)Cc1c[nH]c2ccc(O)cc12 (stereo not drawn) [alpha-Methyl-5-hydroxytryptamine maleate],dopaminergic neuron differentiation score,ReNCell VM [2]; library: LOPAC,inactive: 0
C[C@@]12C(=O)OC(=O)[C@]1(C)[C@H]1CC[C@@H]2O1,neuronal differentiation score,ReNCell VM [1]; library: Spectrum,inactive: 0
